Measured data: PubChem BioAssay AID1259308 (NCATS, 2017)

Assay: 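Candidate targets for better recombinant protein yield in mammalian cells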 (primary screen)
Cells: human HEK293 embryonic kidney cells stably expressing firefly luciferase (HEK-CMV-Luc2-Hygro)
Reagents: single siRNA against human genes, 0.8 pmol siRNA per well
Timing: 72 h
Measured: 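Luciferase light (ONE-Glo) measured on one replicate plate set and viability (CellTiter-Glo) on the other, scaled to a negative control siRNA, with robust z-scores and luciferase per cell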
Reading the numbers: total luciferase, z-score and total luciferase, % of control: higher = more reporter protein produced; luciferase per cell, z-score: higher = more reporter output per viable cell; viable cells, % of control: higher = more viable cells
Hit rule: 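Active when the median/MAD z-score for overall luciferase is greater than 3; a gene was taken forward for validation with new siRNAs if at least two of its three siRNAs passed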
Meaning of the calls: active = raised luciferase; inactive = no rise
The deposit covers about 59,000 reagents; below is an unselected part. In the full data, about 1,510 (2.6%) are marked active. 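Calls use total luciferase alone and ignore viability, so some active siRNAs may act by altering cell number.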 Entries without a mark were called inactive. The numbers tell different reagents against one gene apart.

Target gene	reagent no.	total luciferase, z-score	total luciferase, % of control	luciferase per cell, z-score	viable cells, % of control
PIWIL4 (piwi like RNA-mediated gene silencing 4)	1	1.67	115	1.1	96.3
PIWIL4 (piwi like RNA-mediated gene silencing 4)	2	0.212	86.1	-0.301	104
PIWIL4 (piwi like RNA-mediated gene silencing 4)	3	-0.715	67.7	-1.27	106
BNIP2 (BCL2 interacting protein 2)	1	0.0446	82.8	0.0914	90.3
BNIP2 (BCL2 interacting protein 2)	2	-1.43	53.4	0.608	50.9
BNIP2 (BCL2 interacting protein 2)	3	-1.01	61.7	-0.161	71.9
KPNA2 (karyopherin subunit alpha 2)	1	0.518	92.2	0.308	95
KPNA2 (karyopherin subunit alpha 2)	2	0.155	85	0.653	79.9
KPNA2 (karyopherin subunit alpha 2)	3	1.21	106	0.141	114
HIF1A (hypoxia inducible factor 1 subunit alpha)	1	1.18	105	0.77	96
HIF1A (hypoxia inducible factor 1 subunit alpha)	2	-0.622	69.5	-0.781	95.4
HIF1A (hypoxia inducible factor 1 subunit alpha)	3	-0.268	76.6	-0.457	96.5
CCNG1 (cyclin G1)	1	0.913	100	1.47	76
CCNG1 (cyclin G1)	2	1.29	108	0.812	97.1
CCNG1 (cyclin G1)	3	-0.401	73.9	-0.613	97.1
CLVS1 (clavesin 1)	1	-0.266	76.6	1.71	54.6
CLVS1 (clavesin 1)	2	-0.278	76.4	0.021	84.9
CLVS1 (clavesin 1)	3	-0.541	71.1	-0.942	102
U2AF1L4 (U2 small nuclear RNA auxiliary factor 1 like 4)	1	2.15	125	1.39	96.7
U2AF1L4 (U2 small nuclear RNA auxiliary factor 1 like 4)	2	0.204	86	-0.602	113
U2AF1L4 (U2 small nuclear RNA auxiliary factor 1 like 4)	3	-0.186	78.2	-0.624	103
SCOC (short coiled-coil protein)	1	0.394	89.7	0.033	99.4
SCOC (short coiled-coil protein)	2	-0.647	69	-0.379	85.2
SCOC (short coiled-coil protein)	3	0.588	93.6	0.828	84.1
TCEAL7 (transcription elongation factor A like 7)	1	1.32	108	0.999	92.9
TCEAL7 (transcription elongation factor A like 7)	2	-0.164	78.6	-0.093	90
TCEAL7 (transcription elongation factor A like 7)	3	2.02	122	2.26	75.2
ACOX2 (acyl-CoA oxidase 2)	1	1.28	107	0.468	106
ACOX2 (acyl-CoA oxidase 2)	2	-1.76	46.9	-0.959	67.5
ACOX2 (acyl-CoA oxidase 2)	3	2.06	123	0.944	107
OCRL (OCRL inositol polyphosphate-5-phosphatase)	1	5.23 (active)	186	1.98	123
OCRL (OCRL inositol polyphosphate-5-phosphatase)	2	-0.29	76.1	-0.758	104
OCRL (OCRL inositol polyphosphate-5-phosphatase)	3	3.37 (active)	149	1.59	109
CLEC4C (C-type lectin domain family 4 member C)	1	-2.26	36.9	-2.05	70.8
CLEC4C (C-type lectin domain family 4 member C)	2	-1.36	54.8	-1.37	87.8
CLEC4C (C-type lectin domain family 4 member C)	3	0.178	85.4	0.21	90.3
TBC1D2 (TBC1 domain family member 2)	1	0.405	89.9	0.0944	98
TBC1D2 (TBC1 domain family member 2)	2	-0.316	75.6	0.766	69.1
TBC1D2 (TBC1 domain family member 2)	3	0.156	85	0.673	79.5
